Source: patent US20090281163
At least one result comes from cells or an extract, where the contact may be indirect. A negative result means that nothing was seen under these conditions. For some assays here: Construct, isoform or probe ends are uncertain for at least one entry.

Protein sequences, listed by entry. Tags and fused reporters are not part of them. Lines headed by an entry give the natural chain unless they say otherwise; changes in a name come on top.
UniProt P80206: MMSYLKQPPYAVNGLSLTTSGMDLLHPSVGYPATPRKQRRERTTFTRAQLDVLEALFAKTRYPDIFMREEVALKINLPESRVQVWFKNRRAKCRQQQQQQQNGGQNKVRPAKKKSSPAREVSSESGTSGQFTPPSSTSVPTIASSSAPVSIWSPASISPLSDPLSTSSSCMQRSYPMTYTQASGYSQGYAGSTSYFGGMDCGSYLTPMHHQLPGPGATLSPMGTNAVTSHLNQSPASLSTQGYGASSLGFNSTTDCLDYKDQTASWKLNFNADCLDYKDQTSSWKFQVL
UniProt O54751: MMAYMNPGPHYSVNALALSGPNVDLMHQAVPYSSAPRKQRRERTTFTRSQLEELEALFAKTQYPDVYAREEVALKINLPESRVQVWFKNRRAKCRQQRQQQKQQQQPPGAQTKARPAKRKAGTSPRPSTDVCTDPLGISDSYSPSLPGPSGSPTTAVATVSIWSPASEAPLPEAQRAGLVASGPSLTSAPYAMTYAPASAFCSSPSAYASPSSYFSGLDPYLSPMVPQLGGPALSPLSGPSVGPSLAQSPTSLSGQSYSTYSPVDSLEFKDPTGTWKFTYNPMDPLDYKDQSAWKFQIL
UniProt P31360, whole entry: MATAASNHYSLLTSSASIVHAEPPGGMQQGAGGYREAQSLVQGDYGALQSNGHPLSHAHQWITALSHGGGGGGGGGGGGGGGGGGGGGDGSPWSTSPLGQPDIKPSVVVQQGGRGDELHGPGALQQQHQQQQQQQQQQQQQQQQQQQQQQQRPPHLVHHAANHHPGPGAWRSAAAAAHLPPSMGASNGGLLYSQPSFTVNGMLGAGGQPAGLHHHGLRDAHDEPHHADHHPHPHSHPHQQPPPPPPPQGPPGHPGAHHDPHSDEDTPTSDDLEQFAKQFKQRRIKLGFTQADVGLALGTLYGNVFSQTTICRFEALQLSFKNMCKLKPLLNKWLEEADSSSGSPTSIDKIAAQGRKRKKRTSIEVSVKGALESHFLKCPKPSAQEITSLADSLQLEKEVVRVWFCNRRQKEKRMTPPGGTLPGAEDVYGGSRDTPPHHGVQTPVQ

Columns and labels:
Experiment in all cases: EMSA
Details in all cases: protein in a lysate after overexpression, label: 32P
[1] = molecular target: Otx2Myc (Otx2) (Mus musculus) (UniProt P80206)
[2] = molecular target: CrxMyc (Crx) (Mus musculus) (UniProt O54751)
[3] = molecular target: Brn2 (Pou3f2) (Mus musculus) (UniProt P31360)
[4] = by contrast in text, relatively specific POU site
[5] = CTAATCC sites interacted only with Crx and Otx2
[6] = by contrast in text, GAAT site bound by Brn2 only
[7] = 22 C, 50 mM KCl, 10 mM Tris pH 7.5, poly(dI-dC)
[8] = by contrast in text, AAAT site bound by Brn2 only

Sequence | binding result ([3]; same buffer) | binding result ([1]; same buffer) | binding result ([2]; same buffer) | other results
CTAGTCTCTTTATCCAAAATAAGCGACT (double strand) [Chx10 Brn2 site probe] | binds | – | – | binding result [1, 4]: no binding; binding result [2, 4]: no binding
CTAGCTTTAATCTGTTAATGTAGT (double strand) [Grm6 Pou3f2 site probe] | binds | binds | binds | –
CTAGTTGCCCGCTAATCCCAGCTG (double strand) [Chx10 Crx site probe] | – | binds | binds | binding result [3, 5]: no binding
CTAGAGAGCTCTAATCCCTCCACT (double strand) [Cabp5 Pitx2 site probe] | – | binds | binds | binding result [3, 5]: no binding
CTAGTAAGTAGAATTTTCCATGAGCTGT (double strand) [Cabp5 3' Brn2 site probe] | binds | – | – | binding result [1, 6]: no binding; binding result [2, 6]: no binding
CTAGCTAAACTTTTAAATCATGAATGAAGTAGA (double strand) [Grm6 Pax6 site probe] | – | – | – | binding result [1, 7]: no binding; binding result [2, 7]: no binding; binding result [3, 7]: binds
CTAGCTGCCATTAAAATATTAAAG (double strand) [Chx10 Pou3f2 site probe] | binds | – | – | binding result [1, 4]: no binding; binding result [2, 4]: no binding
CTAGCAAATCGTTAATCTGCTAAAG (double strand) [Grm6 Crx site probe] | binds | binds | binds | –
CTAGCCTCACCCTAATCCCTCTTTC (double strand) [Cabp5 Crx site probe] | – | binds | binds | binding result [3, 5]: no binding
CTAGAGATAAATCTAATCGTCTCT (double strand) [Chx10 Otx site probe] | binds | binds | – | –
CTAGCCCTCTTTCAAAATGTACTATC (double strand) [Cabp5 5' Brn2 site probe] | binds | – | – | binding result [1, 8]: no binding; binding result [2, 8]: no binding
